The reference is the same well before dosing, and untreated signal decays as well.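 Fibroblast labels denote human fibroblasts, mainly primary ones from uterus (C12385, HUF), lung (H6013), bone (Hs27A), adrenal (HADF) and skin (WS1), plus mammary HMF and breast cancer-associated Hs343T. Cancer cells are basal-like or mesenchymal-like triple-negative breast cancer lines. A hit is a response shift exceeding 3x replicate standard deviation. The tissue of the other fibroblasts is not given here.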
Test system: MDAMB231
Test: relative JC-1 red fluorescence (viability) vs pre-drug, coculture with fibroblast (fraction); higher = more viable cancer cells
Protocol: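 JC-1 labelled TNBC cells cocultured 1:1 (1,500 cells each) with CellTrace Violet stained primary or stromal fibroblasts in 384-well plates in FluoroBrite medium, treated with one of 42 anticancer drugs at 0.1, 1, 10 or 100 uM. JC-1 red fluorescence (mitochondrial integrity in cancer cells only) was read by plate reader every 8 h for 72 h. Values are normalised to each well's pre-drug value. The stock of one drug was tenfold lower, so its dose labels may be too high.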

CC(=O)O[C@@]12CO[C@@H]1C[C@H](O)[C@@]1(C)C(=O)[C@H](O)C3=C(C)[C@@H](OC(=O)[C@H](O)[C@@H](NC(=O)OC(C)(C)C)c4ccccc4)C[C@@](O)([C@@H](OC(=O)c4ccccc4)[C@H]21)C3(C)C [Docetaxel]
relative JC-1 red fluorescence
Conditions | 8 h | 16 h | 24 h | 32 h | 40 h | 48 h | 56 h | 64 h | 72 h
10 µM, coculture fibroblast: C12385 | 0.777 | 0.788 | 0.667 | 0.681 | 0.624 | 0.589 | 0.549 | 0.54573 | 0.5249
10 µM, coculture fibroblast: H6013 | 0.91778 | 0.902 | 0.872 | 0.845 | 0.816 | 0.804 | 0.794 | 0.7841 | 0.7575
10 µM, coculture fibroblast: H6019 | 0.8 | 0.7702 | 0.694 | 0.669 | 0.6334 | 0.619 | 0.602 | 0.604 | 0.592
10 µM, coculture fibroblast: H6076 | 0.8717 | 0.79771 | 0.7408 | 0.719 | 0.6794 | 0.656 | 0.66 | 0.663 | 0.671
10 µM, coculture fibroblast: H6231 | 0.949 | 0.876 | 0.813 | 0.759 | 0.718 | 0.687 | 0.647 | 0.625 | 0.596
10 µM, coculture fibroblast: HADF | 0.908 | 0.886 | 0.832 | 0.776 | 0.735 | 0.698 | 0.678 | 0.657 | 0.611
10 µM, coculture fibroblast: HCFa | 0.916 | 0.8749 | 0.8199 | 0.7758 | 0.7216 | 0.66 | 0.6454 | 0.6191 | 0.5804
10 µM, coculture fibroblast: HCPF | 0.9061 | 0.8457 | 0.7945 | 0.7723 | 0.7169 | 0.6828 | 0.646 | 0.6181 | 0.5981
10 µM, coculture fibroblast: HHSteC | 0.9221 | 0.9072 | 0.8699 | 0.805 | 0.757 | 0.731 | 0.697 | 0.676 | 0.649
10 µM, coculture fibroblast: HMF | 0.899 | 0.831 | 0.761 | 0.721 | 0.674 | 0.639 | 0.613 | 0.6 | 0.59
10 µM, coculture fibroblast: HPFa | 0.9367 | 0.9196 | 0.857 | 0.793 | 0.772 | 0.731 | 0.687 | 0.667 | 0.627
10 µM, coculture fibroblast: HUF | 0.8719 | 0.7742 | 0.808 | 0.688 | 0.633 | 0.625 | 0.587 | 0.609 | 0.608
10 µM, coculture fibroblast: Hs5 | 0.926 | 0.881 | 0.8206 | 0.7642 | 0.732 | 0.678 | 0.644 | 0.625 | 0.614
10 µM, coculture fibroblast: Hs27A | 0.9148 | 0.8801 | 0.8487 | 0.816 | 0.76 | 0.696 | 0.721 | 0.714 | 0.675
10 µM, coculture fibroblast: Hs343T | 0.951 | 0.869 | 0.792 | 0.738 | 0.671 | 0.626 | 0.573 | 0.5422 | 0.519
10 µM, coculture fibroblast: WS1 | 0.77042 | 0.73822 | 0.628 | 0.595 | 0.555 | 0.522 | 0.486 | 0.475 | 0.453
100 µM, coculture fibroblast: C12385 | 0.813 | 0.826 | 0.692 | 0.716 | 0.651 | 0.632 | 0.591 | 0.585 | 0.571
100 µM, coculture fibroblast: H6013 | 0.934 | 0.884 | 0.859 | 0.819 | 0.765 | 0.741 | 0.74 | 0.717 | 0.7
100 µM, coculture fibroblast: H6019 | 0.802 | 0.729 | 0.6566 | 0.654 | 0.624 | 0.602 | 0.572 | 0.575 | 0.563
100 µM, coculture fibroblast: H6076 | 0.95099 | 0.905 | 0.87 | 0.854 | 0.811 | 0.782 | 0.764 | 0.765 | 0.78
100 µM, coculture fibroblast: H6231 | 0.9615 | 0.905 | 0.816 | 0.763 | 0.7151 | 0.6871 | 0.646 | 0.624 | 0.593
100 µM, coculture fibroblast: HADF | 0.9303 | 0.9074 | 0.84 | 0.788 | 0.727 | 0.674 | 0.659 | 0.635 | 0.595
100 µM, coculture fibroblast: HCFa | 0.94217 | 0.8873 | 0.836 | 0.786 | 0.723 | 0.675 | 0.661 | 0.639 | 0.616
100 µM, coculture fibroblast: HCPF | 0.985 | 0.912 | 0.832 | 0.81 | 0.745 | 0.71 | 0.682 | 0.669 | 0.649
100 µM, coculture fibroblast: HHSteC | 0.9515 | 0.915 | 0.86 | 0.809 | 0.765 | 0.74 | 0.704 | 0.698 | 0.67
100 µM, coculture fibroblast: HMF | 0.897 | 0.938 | 0.872 | 0.822 | 0.772 | 0.737 | 0.687 | 0.659 | 0.637
100 µM, coculture fibroblast: HPFa | 0.9684 | 0.9328 | 0.8654 | 0.7953 | 0.775 | 0.732 | 0.68 | 0.66 | 0.627
100 µM, coculture fibroblast: HUF | 0.878 | 0.796 | 0.766 | 0.675 | 0.635 | 0.636 | 0.602 | 0.613 | 0.608
100 µM, coculture fibroblast: Hs5 | 0.92 | 0.838 | 0.7703 | 0.714 | 0.67 | 0.623 | 0.5897 | 0.575 | 0.573
100 µM, coculture fibroblast: Hs27A | 0.9259 | 0.9094 | 0.886 | 0.8586 | 0.8323 | 0.768 | 0.7946 | 0.7873 | 0.7444
100 µM, coculture fibroblast: Hs343T | 0.862 | 0.903 | 0.791 | 0.7335 | 0.6633 | 0.605 | 0.5442 | 0.527 | 0.501
100 µM, coculture fibroblast: WS1 | 0.807 | 0.76 | 0.65 | 0.653 | 0.611 | 0.586 | 0.548 | 0.55 | 0.527

Reference: the supplement of paper PMC6078165
